This is an account of results in the supplement of paper PMC8256030.

Values joined by “and” are separate entries in the source; they are usually repeats but may differ in a detail not shown here. Identical values can stand only once. The list shows a part of the results. Repeats in this data set agree poorly, so a single value says little.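 HEK293T cells were given each compound shortly before transfection with a reporter in which red mCherry is followed by the SARS-CoV-2 frameshift element and then GFP in the −1 frame, so GFP appears only after frameshifting.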

One experiment has as its system HEK293T. Kind of experiment: percent viability (nuclei count) relative to control; higher = more viable cells. The conditions noted are these: 10 µM; 24 h.
Experiment [1] has as its system SARS-CoV-2 -1 PRF reporter mCherry-FSE-GFP(-1). Kind of experiment: mCherry (red) intensity as percent of control; higher = higher upstream reporter expression. To be noted: 10 µM; 24 h; HEK293T.
For experiment [2] the test system is unchanged. The experiment can be described thus: percent effect, decrease of GFP/mCherry ratio (-1 PRF reporter) relative to controls; higher = stronger frameshift inhibition. The conditions noted are these: 10 µM; 24 h; HEK293T.

`CCC(=O)OC1(c2ccccc2)CCN(C)CC1C` (stereo unspecified) [alphaprodine]: the percent viability in the experiment on HEK293T came to 237%. In experiment [1], this molecule displayed a mCherry of 108%. Also, in experiment [2], the percent effect stood at 1.14%.
For `CN1CC(CCN2CC=C(c3ccccc3)CC2)OC1=O` (stereo unspecified) [fenpipalone] the same measures were 192%, 81.8% and -3.2%.
For `O=C(O)c1ccc2[nH]cc(CCCCN3CC=C(c4ccccc4)CC3)c2c1` [carmoxirole] the same measures were 120%, 126% and 0.595%.
With `C[C@]12CC[C@@H]3c4ccc(O)cc4CC[C@H]3[C@@H]1C[C@@H](O)[C@@H]2O`, in experiment [1], the mCherry was 118%.
Turning to `O=c1[nH]c2ccccc2n1CCCN1CCC(n2c(=O)[nH]c3cc(Cl)ccc32)CC1` [domperidone], the percent viability in the experiment with HEK293T was 332% and 328%. Further, the percent effect in experiment [2] was -2.76% and -1.77%.
On to `CC(C)(C)NCC(O)c1ccccc1Cl` (stereo unspecified) [tulobuterol], for which the percent viability with HEK293T is 380% and 210%. The percent effect in experiment [2] is -1.05% and -2.55%.
In experiment [1], `Oc1ccc2ccccc2c1` displayed a mCherry of 122%.
Turning to `CCOc1cc(NC(C)=O)ccc1C(=O)OC`, the mCherry in experiment [1] amounted to 92.7%.
